# Measurements reported in PubChem BioAssay AID1259308 (NCATS, 2017).
# Test: 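Genes whose loss raises luciferase production in HEK293 cells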 (primary screen)
# System: human HEK293 embryonic kidney cells stably expressing firefly luciferase (HEK-CMV-Luc2-Hygro)
# Reagents: single siRNA against human genes, 0.8 pmol siRNA per well
# Time to read-out: 72 h
# Detection: 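Luciferase light (ONE-Glo) measured on one replicate plate set and viability (CellTiter-Glo) on the other, scaled to a negative control siRNA, with robust z-scores and luciferase per cell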
# Direction: total luciferase, z-score and total luciferase, % of control: higher = more reporter protein produced
# Hit rule: 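An siRNA counts as active if its total luciferase robust z-score exceeds 3; genes with two or more such siRNAs out of three were retested with fresh siRNAs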
# Meaning of the calls: active = raised luciferase; inactive = no rise
# This is an unselected part of about 59,000 deposited reagents. About 1,510 of all reagents (2.6%) were called active. 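Calls use total luciferase alone and ignore viability, so some active siRNAs may act by altering cell number.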 Reagents against one gene are numbered here. Not all columns of the deposit are shown.
target gene,reagent,"total luciferase, z-score","total luciferase, % of control",activity call
RAB43,1,-2.3,36.1,inactive
RAB43,2,0.633,94.5,inactive
RAB43,3,-0.149,78.9,inactive
PSG8,1,-0.71,67.8,inactive
PSG8,2,2,122,inactive
PSG8,3,0.851,98.8,inactive
FAM230B,1,-2.11,40,inactive
FAM230B,2,0.517,92.2,inactive
FAM230B,3,2.81,138,inactive
VRK1,1,-0.237,77.2,inactive
VRK1,2,-0.478,72.4,inactive
VRK1,3,0.105,84,inactive
TDRD3,1,0.711,96,inactive
TDRD3,2,-1.2,58.1,inactive
TDRD3,3,0.132,84.5,inactive
ARFGAP3,1,-0.541,71.1,inactive
ARFGAP3,2,-1.7,48.1,inactive
ARFGAP3,3,-0.226,77.4,inactive
EMG1,1,-0.799,66,inactive
EMG1,2,-1.21,57.9,inactive
EMG1,3,-0.589,70.2,inactive
ITIH5,1,0.161,85.1,inactive
ITIH5,2,0.812,98,inactive
ITIH5,3,-0.511,71.7,inactive
FKBP1B,1,0.427,90.4,inactive
FKBP1B,2,-0.964,62.7,inactive
FKBP1B,3,0.0693,83.3,inactive
PLAAT5,1,0.984,101,inactive
PLAAT5,2,0.686,95.5,inactive
PLAAT5,3,2.97,141,inactive
MYB,1,1.15,105,inactive
MYB,2,2.25,127,inactive
MYB,3,0.341,88.7,inactive
ZNF324,1,-0.469,72.6,inactive
ZNF324,2,0.713,96.1,inactive
ZNF324,3,0.0676,83.2,inactive
MARCHF8,1,-1.2,57.9,inactive
MARCHF8,2,-0.288,76.2,inactive
MARCHF8,3,0.02,82.3,inactive
MYO16,1,-0.784,66.3,inactive
MYO16,2,0.0567,83,inactive
MYO16,3,0.567,93.2,inactive
ERICH5,1,-1.99,42.3,inactive
ERICH5,2,-0.721,67.5,inactive
ERICH5,3,-1.54,51.3,inactive
NUDT2,1,-0.439,73.2,inactive
NUDT2,2,0.751,96.8,inactive
NUDT2,3,-0.223,77.4,inactive
FER1L6-AS1,1,-0.604,69.9,inactive
FER1L6-AS1,2,-0.676,68.4,inactive
FER1L6-AS1,3,0.754,96.9,inactive
WDR73,1,-0.681,68.3,inactive
WDR73,2,0.116,84.2,inactive
WDR73,3,-0.419,73.6,inactive
LOC729696 (retired record),1,-1.77,46.7,inactive
LOC729696 (retired record),2,0.885,99.5,inactive
LOC729696 (retired record),3,-1.63,49.5,inactive

5 of these entries, set out differently.
{"target gene": "ERICH5", "reagent": 2, "total luciferase, z-score": -0.721, "total luciferase, % of control": 67.5, "activity call": "inactive"}
{"target gene": "ERICH5", "reagent": 3, "total luciferase, z-score": -1.54, "total luciferase, % of control": 51.3, "activity call": "inactive"}
{"target gene": "NUDT2", "reagent": 1, "total luciferase, z-score": -0.439, "total luciferase, % of control": 73.2, "activity call": "inactive"}
{"target gene": "NUDT2", "reagent": 2, "total luciferase, z-score": 0.751, "total luciferase, % of control": 96.8, "activity call": "inactive"}
{"target gene": "NUDT2", "reagent": 3, "total luciferase, z-score": -0.223, "total luciferase, % of control": 77.4, "activity call": "inactive"}
